System: Spodoptera littoralis larvae
Test: Insecticidal leaf dip bioassay screening
Details: after 72 hours of treatment, probit (LDP-line) slope

| SMILES | Slope (2nd instar larvae) | Slope (4th instar larvae) |
| --- | --- | --- |
| O=C(Nc1ccccc1)C1=CN=C(Nc2ccc(Cl)cc2)O/C(=N/c2ccccc2)O1 [Compound 2, (2E)-4-[(4-chlorophenyl)amino]-N-phenyl-2-(phenylimino)-1,3,5-dioxazepine-7-carboxamide] | 0.246 ± 0.0791 | 0.225 ± 0.0820 |
| CCOC(=O)NCCOc1ccc(Oc2ccccc2)cc1 [fenoxycarb, reference compound] | 0.298 ± 0.0808 | 0.225 ± 0.0870 |

— patent US12060336B1, “(2E)-4-[(4-chlorophenyl)amino]-N-phenyl-2-(phenylimino)-1,3,5-dioxazepine-7-carboxamide as an eco-friendly insecticidal agent against Spodoptera littoralis (boisd.)” (King Faisal University, priority 2023, dated 2024)
